In patent US8518876B2 (Pharmaln Corporation, priority 2007, dated 2013):
Bridges are numbered along the chain shown (N, C = ends). [ ]: non-standard residue; d: D form. The star is where a group is joined. ξ: configuration not given here. Lauroyl = CCCCCCCCCCCC(=O)*; Octanoyl = CCCCCCCC(=O)*; ξLac = CC(O)C(=O)O

Test: peptide made by a vendor
Settings: whole synthesis, 215 nm

Substance | final HPLC purity
H-HHHGGGCYFQNCPRG-NH2 (disulfide 7-12; SMILES N=C(N)NCCC[C@H](NC(=O)[C@@H]1CCCN1C(=O)[C@@H]1CSSC[C@H](NC(=O)CNC(=O)CNC(=O)CNC(=O)[C@H](Cc2c[nH]cn2)NC(=O)[C@H](Cc2c[nH]cn2)NC(=O)[C@@H](N)Cc2c[nH]cn2)C(=O)N[C@@H](Cc2ccc(O)cc2)C(=O)N[C@@H](Cc2ccccc2)C(=O)N[C@@H](CCC(N)=O)C(=O)N[C@@H](CC(N)=O)C(=O)N1)C(=O)NCC(N)=O) | greater than 95%
Lauroyl-GGGCYFQNCPKG-NH2 (disulfide 4-9; SMILES CCCCCCCCCCCC(=O)NCC(=O)NCC(=O)NCC(=O)N[C@H]1CSSC[C@@H](C(=O)N2CCC[C@H]2C(=O)N[C@@H](CCCCN)C(=O)NCC(N)=O)NC(=O)[C@H](CC(N)=O)NC(=O)[C@H](CCC(N)=O)NC(=O)[C@H](Cc2ccccc2)NC(=O)[C@H](Cc2ccc(O)cc2)NC1=O) | greater than 90%

Same assay, conditions: whole synthesis, 220 nm

Substance | final HPLC purity
H-HHHGGGCYFQNCPKG-NH2 (disulfide 7-12; SMILES NCCCC[C@H](NC(=O)[C@@H]1CCCN1C(=O)[C@@H]1CSSC[C@H](NC(=O)CNC(=O)CNC(=O)CNC(=O)[C@H](Cc2c[nH]cn2)NC(=O)[C@H](Cc2c[nH]cn2)NC(=O)[C@@H](N)Cc2c[nH]cn2)C(=O)N[C@@H](Cc2ccc(O)cc2)C(=O)N[C@@H](Cc2ccccc2)C(=O)N[C@@H](CCC(N)=O)C(=O)N[C@@H](CC(N)=O)C(=O)N1)C(=O)NCC(N)=O) | greater than 95%
H-HHHHHHGGGCYFQNCPKG-NH2 (disulfide 10-15; SMILES NCCCC[C@H](NC(=O)[C@@H]1CCCN1C(=O)[C@@H]1CSSC[C@H](NC(=O)CNC(=O)CNC(=O)CNC(=O)[C@H](Cc2c[nH]cn2)NC(=O)[C@H](Cc2c[nH]cn2)NC(=O)[C@H](Cc2c[nH]cn2)NC(=O)[C@H](Cc2c[nH]cn2)NC(=O)[C@H](Cc2c[nH]cn2)NC(=O)[C@@H](N)Cc2c[nH]cn2)C(=O)N[C@@H](Cc2ccc(O)cc2)C(=O)N[C@@H](Cc2ccccc2)C(=O)N[C@@H](CCC(N)=O)C(=O)N[C@@H](CC(N)=O)C(=O)N1)C(=O)NCC(N)=O) | greater than 95%
H-HHHHHHGGGCYFQNCPRG-NH2 (disulfide 10-15; SMILES N=C(N)NCCC[C@H](NC(=O)[C@@H]1CCCN1C(=O)[C@@H]1CSSC[C@H](NC(=O)CNC(=O)CNC(=O)CNC(=O)[C@H](Cc2c[nH]cn2)NC(=O)[C@H](Cc2c[nH]cn2)NC(=O)[C@H](Cc2c[nH]cn2)NC(=O)[C@H](Cc2c[nH]cn2)NC(=O)[C@H](Cc2c[nH]cn2)NC(=O)[C@@H](N)Cc2c[nH]cn2)C(=O)N[C@@H](Cc2ccc(O)cc2)C(=O)N[C@@H](Cc2ccccc2)C(=O)N[C@@H](CCC(N)=O)C(=O)N[C@@H](CC(N)=O)C(=O)N1)C(=O)NCC(N)=O) | greater than 95%
Lauroyl-[ξLac]GGGCYFQNCPKG-NH2 (disulfide 5-10; SMILES CCCCCCCCCCCC(=O)OC(C)C(=O)NCC(=O)NCC(=O)NCC(=O)N[C@H]1CSSC[C@@H](C(=O)N2CCC[C@H]2C(=O)N[C@@H](CCCCN)C(=O)NCC(N)=O)NC(=O)[C@H](CC(N)=O)NC(=O)[C@H](CCC(N)=O)NC(=O)[C@H](Cc2ccccc2)NC(=O)[C@H](Cc2ccc(O)cc2)NC1=O) | greater than 90%
Octanoyl-GGGCYFQNCPKG-NH2 (disulfide 4-9; SMILES CCCCCCCC(=O)NCC(=O)NCC(=O)NCC(=O)N[C@H]1CSSC[C@@H](C(=O)N2CCC[C@H]2C(=O)N[C@@H](CCCCN)C(=O)NCC(N)=O)NC(=O)[C@H](CC(N)=O)NC(=O)[C@H](CCC(N)=O)NC(=O)[C@H](Cc2ccccc2)NC(=O)[C@H](Cc2ccc(O)cc2)NC1=O) | greater than 90%
Octanoyl-[ξLac]GGGCYFQNCPKG-NH2 (disulfide 5-10; SMILES CCCCCCCC(=O)OC(C)C(=O)NCC(=O)NCC(=O)NCC(=O)N[C@H]1CSSC[C@@H](C(=O)N2CCC[C@H]2C(=O)N[C@@H](CCCCN)C(=O)NCC(N)=O)NC(=O)[C@H](CC(N)=O)NC(=O)[C@H](CCC(N)=O)NC(=O)[C@H](Cc2ccccc2)NC(=O)[C@H](Cc2ccc(O)cc2)NC1=O) | greater than 95%
